According to US20130210911A1, “METHOD AND COMPOSITION FOR TREATING A DISEASE OR CONDITION RELATED TO OREXIN RECEPTOR 1, OREXIN RECEPTOR 2, SOMATOSTATIN RECEPTOR 2 OR DOPAMINE D2L RECEPTOR” (CENTER LABORATORIES, INC., priority 2009, published 2013):
Where a name gives a salt, the structure may show the parent alone. The name of at least one read-out is uncertain.

The chains behind the UniProt entries cited, without tags or fusion partners. Residues count along the entry.
UniProt A0A286XKC5, 1-368: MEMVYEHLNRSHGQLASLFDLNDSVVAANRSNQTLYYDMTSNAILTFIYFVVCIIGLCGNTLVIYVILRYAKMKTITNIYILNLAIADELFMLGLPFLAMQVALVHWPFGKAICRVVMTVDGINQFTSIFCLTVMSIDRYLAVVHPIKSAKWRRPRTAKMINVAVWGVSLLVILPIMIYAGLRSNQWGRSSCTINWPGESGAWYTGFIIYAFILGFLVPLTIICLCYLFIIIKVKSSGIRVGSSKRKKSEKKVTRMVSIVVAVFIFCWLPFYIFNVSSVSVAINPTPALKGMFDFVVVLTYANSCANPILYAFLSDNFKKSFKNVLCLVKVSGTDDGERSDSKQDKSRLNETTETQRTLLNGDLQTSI

Molecular target: Somatostatin receptor 2 (Cavia porcellus, UniProt A0A286XKC5)
Experiment: Somatostatin tissue assay
Conditions: guinea pig tissue, agonist; read-out: EC50/IC50 (agonist EC50)
Source text: Orexin receptor 1 or 2 binding affinity was examined using the methods disclosed by Kukkonen et al., (2002) Am J Physiol Cell Physiol. 283:C1567-C1591; and Langmead et al., (2004) Br J Pharmacol. 141(2):340-346. […] Pharmacol. 58:254-264; and Spedding. (1984) M. Eur J Pharmacol. 83:211. Somaostatin receptor 2 binding activity was estimated by the method described by Feniuk et al., (1993) Br J Pharmacol. 110:1156-1164. Adenosine receptor binding activity was examined using the method described by Varani et al., (1996) Br J Pharmacol. 117:1693-1701. Bradykinin receptor binding activity was examined using the methods described by Horlick et al., (1999) Immunopharmacology 43(2-3):169-177; and Phagoo et al., (2001) J Pharmacol Exp Ther 298(1):77-85. Calcium channel (N-type) binding activity was examined using the method disclosed by Moresco et al., (1990) Neurobiol of Aging. 11(4):433-436. Cannabinoid receptor binding activity was examined using the method disclosed by Reggio et al., (1998) J Med Chem 41(26):5177-5187. […] Estrogen receptors (including ERα and ERβ) were examined using the method disclosed by Obourn et al., (1993) Biochem 32:6229-6236. […]

SMILES	EC50 [nM]
COc1ccc(CCN(C)CCC[C@](C#N)(c2ccc(OC)c(OC)c2)C(C)C)cc1OC [(R)-(+)-verapamil hydrochloride]	1600
COc1ccc(CCN(C)CCC[C@@](C#N)(c2ccc(OC)c(OC)c2)C(C)C)cc1OC [(S)-(−)-verapamil hydrochloride]	190
